Values are relative to the signal before dosing, not to a vehicle control; the signal also falls without drug.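 Fibroblast labels denote human fibroblasts, mainly primary ones from uterus (C12385, HUF), lung (H6013), bone (Hs27A), adrenal (HADF) and skin (WS1), plus mammary HMF and breast cancer-associated Hs343T. Cancer cells are basal-like or mesenchymal-like triple-negative breast cancer lines. A hit is a response shift exceeding 3x replicate standard deviation. The tissue of the other fibroblasts is not given here.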
Tested on: HCC1143
Assay: relative JC-1 red fluorescence (viability) vs pre-drug, coculture with fibroblast (fraction); higher = more viable cancer cells
Method: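 JC-1 labelled TNBC cells cocultured 1:1 (1,500 cells each) with CellTrace Violet stained primary or stromal fibroblasts in 384-well plates in FluoroBrite medium, treated with one of 42 anticancer drugs at 0.1, 1, 10 or 100 uM. JC-1 red fluorescence (mitochondrial integrity in cancer cells only) was read by plate reader every 8 h for 72 h. Values are normalised to each well's pre-drug value. The stock of one drug was tenfold lower, so its dose labels may be too high.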

CC(C)C[C@H](NC(=O)[C@H](Cc1ccccc1)NC(=O)c1cnccn1)B(O)O [Bortezomib]
relative JC-1 red fluorescence
Details | 8 h | 16 h | 24 h | 32 h | 40 h | 48 h | 56 h | 64 h | 72 h
0.1 µM, coculture fibroblast: C12385 | 0.7754 | 0.645 | 0.615 | 0.58 | 0.561 | 0.597 | 0.602 | 0.633 | 0.668
0.1 µM, coculture fibroblast: H6013 | 0.679 | 0.54 | 0.4964 | 0.458 | 0.468 | 0.507 | 0.505 | 0.519 | 0.438
0.1 µM, coculture fibroblast: H6019 | 0.722 | 0.617 | 0.64 | 0.64 | 0.649 | 0.704 | 0.714 | 0.735 | 0.749
0.1 µM, coculture fibroblast: H6076 | 0.826 | 0.701 | 0.65 | 0.702 | 0.637 | 0.674 | 0.672 | 0.668 | 0.728
0.1 µM, coculture fibroblast: H6231 | 0.7993 | 0.732 | 0.618 | 0.633 | 0.548 | 0.538 | 0.512 | 0.493 | 0.512
0.1 µM, coculture fibroblast: HADF | 0.706 | 0.569 | 0.504 | 0.463 | 0.421 | 0.431 | 0.426 | 0.43 | 0.364
0.1 µM, coculture fibroblast: HCFa | 0.807 | 0.684 | 0.643 | 0.62 | 0.617 | 0.636 | 0.621 | 0.609 | 0.519
0.1 µM, coculture fibroblast: HCPF | 0.8065 | 0.745 | 0.629 | 0.6 | 0.522 | 0.513 | 0.489 | 0.47 | 0.499
0.1 µM, coculture fibroblast: HHSteC | 0.817 | 0.661 | 0.587 | 0.528 | 0.511 | 0.512 | 0.49 | 0.484 | 0.408
0.1 µM, coculture fibroblast: HMF | 0.824 | 0.726 | 0.596 | 0.609 | 0.51 | 0.516 | 0.524 | 0.518 | 0.543
0.1 µM, coculture fibroblast: HPFa | 0.815 | 0.634 | 0.596 | 0.546 | 0.53 | 0.564 | 0.561 | 0.574 | 0.593
0.1 µM, coculture fibroblast: HUF | 0.739 | 0.565 | 0.493 | 0.445 | 0.426 | 0.445 | 0.4329 | 0.437 | 0.443
0.1 µM, coculture fibroblast: Hs5 | 0.869 | 0.754 | 0.684 | 0.681 | 0.572 | 0.545 | 0.525 | 0.509 | 0.547
0.1 µM, coculture fibroblast: Hs27A | 0.677 | 0.613 | 0.587 | 0.58 | 0.551 | 0.596 | 0.575 | 0.58 | 0.475
0.1 µM, coculture fibroblast: Hs343T | 0.837 | 0.7695 | 0.676 | 0.677 | 0.591 | 0.595 | 0.578 | 0.576 | 0.597
0.1 µM, coculture fibroblast: WS1 | 0.714 | 0.5501 | 0.499 | 0.458 | 0.435 | 0.461 | 0.463 | 0.486 | 0.512
1 µM, coculture fibroblast: C12385 | 0.7383 | 0.506 | 0.357 | 0.301 | 0.265 | 0.253 | 0.247 | 0.241 | 0.243
1 µM, coculture fibroblast: H6013 | 0.627 | 0.423 | 0.373 | 0.346 | 0.337 | 0.358 | 0.342 | 0.344 | 0.28
1 µM, coculture fibroblast: H6019 | 0.695 | 0.518 | 0.424 | 0.39 | 0.375 | 0.39 | 0.385 | 0.388 | 0.391
1 µM, coculture fibroblast: H6076 | 0.791 | 0.644 | 0.484 | 0.518 | 0.44 | 0.449 | 0.449 | 0.445 | 0.482
1 µM, coculture fibroblast: H6231 | 0.7786 | 0.648 | 0.47874 | 0.495 | 0.408 | 0.394 | 0.365 | 0.344 | 0.34
1 µM, coculture fibroblast: HADF | 0.705 | 0.538 | 0.485 | 0.464 | 0.445 | 0.458 | 0.442 | 0.447 | 0.369
1 µM, coculture fibroblast: HCFa | 0.7352 | 0.538 | 0.493 | 0.476 | 0.473 | 0.474 | 0.442 | 0.42 | 0.345
1 µM, coculture fibroblast: HCPF | 0.778 | 0.7332 | 0.547 | 0.488 | 0.431 | 0.398 | 0.355 | 0.328 | 0.329
1 µM, coculture fibroblast: HHSteC | 0.771 | 0.5438 | 0.5004 | 0.4486 | 0.415 | 0.399 | 0.366 | 0.354 | 0.283
1 µM, coculture fibroblast: HMF | 0.7737 | 0.7 | 0.451 | 0.4144 | 0.317 | 0.297 | 0.275 | 0.269 | 0.28
1 µM, coculture fibroblast: HPFa | 0.812 | 0.524 | 0.454 | 0.424 | 0.375 | 0.377 | 0.353 | 0.356 | 0.352
1 µM, coculture fibroblast: HUF | 0.785 | 0.544 | 0.45 | 0.394 | 0.365 | 0.364 | 0.341 | 0.332 | 0.325
1 µM, coculture fibroblast: Hs5 | 0.846 | 0.726 | 0.611 | 0.62 | 0.515 | 0.489 | 0.465 | 0.443 | 0.453
1 µM, coculture fibroblast: Hs27A | 0.65 | 0.467 | 0.454 | 0.48 | 0.433 | 0.458 | 0.425 | 0.415 | 0.325
1 µM, coculture fibroblast: Hs343T | 0.7964 | 0.766 | 0.555 | 0.486 | 0.412 | 0.38 | 0.333 | 0.317 | 0.319
1 µM, coculture fibroblast: WS1 | 0.6904 | 0.459 | 0.345 | 0.293 | 0.267 | 0.264 | 0.251 | 0.253 | 0.259

Reference: the supplement of paper PMC6078165
